Experimental data published in PubChem BioAssay AID651640 (Broad Institute, 2012).
Among all 350,000 compounds or so, about 6,000 (1.7%) were called active. The shares of active, inactive and inconclusive entries below differ from those in the screen. Cut-off read from the data, not from the text of the source: active = CPE inhibition above about 20% (passing the limit was not always enough); inconclusive = no clear call, values can overlap the other calls; tested in BHK-21 cells.

experiment: protection of cells from dengue 2 killing – plate reader, single concentration, primary screen (AID 651640); conditions: DENV2-infected cells, cytopathic effect rescue, at 9.99 µM, active compounds read high;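 note: 0% = median of neutral control wells and 100% = median of positive control wells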

| SMILES | CPE inhibition |
| --- | --- |
| COc1ccccc1C(=O)Nc1nnc([C@@H]2C[C@H](O)[C@@H](CO)O2)s1 | inconclusive: 22.2% |
| COc1ccc(N(C(=O)c2ccco2)C(C(=O)NC2CCCC2)c2ccccc2)cc1 (stereo not drawn) | inconclusive: 29.6% |
| COc1ccc(-c2cccc(N3CCN(c4ccccn4)CC3)n2)cc1OC | inconclusive: 54.6% |
| C[C@@H]1CN([C@@H](C)CO)S(=O)(=O)c2ccc(-c3cccc(C#N)c3)cc2O[C@H]1CN(C)Cc1ccccn1 | inactive: 8.37% |
| CCCNC(=O)C[C@H]1CC[C@H]2[C@@H](COC[C@@H](O)CN2Cc2ccc(Cl)c(Cl)c2)O1 | inactive: -8.43% |
| Cc1ccc(NC(=O)c2oc3ccc(Br)cc3c2C)cc1S(=O)(=O)N1CCOCC1 | inconclusive: 37.1% |
| CC(C)OCCCn1c(=O)c2ccccc2n2c(CCC(=O)N3CCN(c4ccccn4)CC3)nnc12 | inconclusive: 36.8% |
| O=C(CC1CC1)N1CC(=O)N2[C@@H](CO)[C@@H](c3ccc(C#Cc4cccc(F)c4)cc3)[C@@H]2C1 | active: 28.6% |
| COc1ccc(N=Nc2cc(C)ccc2O)cc1 | inconclusive: 35.2% |
| c1ccc(-c2nn[nH]n2)nc1 | inconclusive: 24.3% |
| CC(=O)c1cccc(NC(=O)C(C)OC(=O)CCN=C2NS(=O)(=O)c3ccccc32)c1 (stereo not drawn) | inconclusive: 51.3% |
| COc1ccc(NCc2nn(CC(=O)c3ccc(Br)cc3)c3[n+]2CCCCC3)cc1 | inactive: -4.37% |
| COc1ccc(S(=O)(=O)Nc2cccc3c2O[C@H](CN(C)C(=O)NC2CCCCC2)[C@H](C)CN([C@@H](C)CO)C3=O)cc1 | inactive: 5.8% |
| NS(=O)(=O)c1ccc(CNC(=O)c2cc(-c3cccnc3)nc3ccc(Cl)cc23)cc1 | inactive: -3.2% |
| COc1cccc(CNC(=O)[C@@H]2CCCN2C(=O)[C@H]2CCCCN2C(=O)c2ccc(Cl)cc2)c1 | active: 77.9% |
| O=C(c1ccc2c(c1)OCO2)N1CCC(Cc2ccccc2)CC1 | active: 25% |
| CO[C@@H](CN(C)S(=O)(=O)c1cccc(Cl)c1)[C@@H](C)CN([C@@H](C)CO)S(=O)(=O)c1cccc(Cl)c1 | inconclusive: 60.5% |
| CCN(CC)CCCNC(CC(=O)Nc1cccc([N+](=O)[O-])c1)C(=O)O (stereo not drawn) | active: 29.8% |
| O=C(CCN1CCCCC1)Nc1ccc(F)c(F)c1 | inconclusive: 51.3% |
| O=C1[C@@H]2Cc3c([nH]c4ccccc34)C(c3cccc(Br)c3)N2C(=O)CN1C1CCN(Cc2ccccc2)CC1 (stereo partly drawn) | inactive: -1.06% |
| COc1ccc2c3c([nH]c2c1)[C@H](CO)N(C(=O)C1CC1)CC31CN(C(=O)NC(C)C)C1 | active: 29.7% |
| CCCC(=O)Nc1ccc2c(c1)C(=O)N(C)[C@@H]1CC[C@@H](CC(=O)NCc3ccccc3)O[C@H]1CO2 | inactive: 8.43% |
| C[C@@H]1CN([C@H](C)CO)C(=O)c2cc(N(C)C)ccc2O[C@@H]1CN(C)S(=O)(=O)c1ccc(F)cc1 | inconclusive: 26.8% |
| CC(C)CN1C(=O)CN(S(C)(=O)=O)CC1(C)C(=O)NC(C)C (stereo not drawn) | active: 27.4% |
| C[C@H]1CN([C@@H](C)CO)S(=O)(=O)c2ccc(C#CC3CC3)cc2O[C@@H]1CN(C)Cc1ccncc1 | active: 41.7% |

Part of the list above, with each value named:
CCN(CC)CCCNC(CC(=O)Nc1cccc([N+](=O)[O-])c1)C(=O)O (stereo not drawn)
  CPE inhibition: active: 29.8%
O=C(CCN1CCCCC1)Nc1ccc(F)c(F)c1
  CPE inhibition: inconclusive: 51.3%
O=C1[C@@H]2Cc3c([nH]c4ccccc34)C(c3cccc(Br)c3)N2C(=O)CN1C1CCN(Cc2ccccc2)CC1 (stereo partly drawn)
  CPE inhibition: inactive: -1.06%

Remaining list, next part:

| SMILES | CPE inhibition |
| --- | --- |
| COc1ccc(S(=O)(=O)N(C)C[C@@H]2Oc3ccc(NC(=O)Nc4ccc5c(c4)OCO5)cc3CC(=O)N([C@@H](C)CO)C[C@H]2C)cc1 | active: 31% |
| OC[C@@H]1[C@@H](c2ccc(-c3ccc(F)cc3)cc2)[C@@H]2CN(Cc3ccccn3)CCCCN12 | active: 63.2% |
| C[C@H](CO)N1C[C@H](C)[C@@H](CN(C)C(=O)Nc2cccc3ccccc23)Oc2ccc(NC(=O)c3ccncc3)cc2CC1=O | inconclusive: 25.1% |
| COc1cccc([C@@H]2CC=C(C(=O)O)[C@H](c3ccccc3F)N2S(=O)(=O)c2ccc(C)cc2)c1 | active: 21.5% |
| COc1ccc(C2/C=C\CN(Cc3ccncc3)CC(=O)N2Cc2ccc(F)cc2)cc1 (stereo not drawn) | inactive: 6.34% |
| COc1cc2c(cc1OC)C(c1ccccc1)NCC2 (stereo not drawn) | inactive: -3.51% |
| Cc1c(CC(=O)NCC(=O)NCC(=O)O)c(=O)oc2cc3c(cc12)CCC(C)(C)O3 | inconclusive: 24.6% |
| C[C@H](CO)N1C[C@H](C)[C@H](CN(C)C(=O)Nc2ccc(F)cc2)Oc2c(NC(=O)Nc3cccc4ccccc34)cccc2C1=O | active: 41.6% |
| CC(C)(C)[C@H]1C=C(C(=O)NC2CC2)O[C@@H](OCc2ccc(CO)cc2)C1 | inconclusive: 23.8% |
| CCc1cc(=O)oc2c(CN3CCN(C)CC3)c(O)ccc12 | inactive: 3.05% |
| CCC(=O)N1CC2(C1)[C@@H](c1ccccc1)[C@@H](CO)N2Cc1ccccc1F | active: 23.7% |
| COc1ccc(CN(C)C[C@@H]2OCCCC[C@@H](C)Oc3ccc(NS(=O)(=O)c4cccs4)cc3C(=O)N([C@H](C)CO)C[C@@H]2C)cc1 | inactive: -10.7% |
| CCC(=O)N1CCCCN2[C@@H](CO)[C@H](c3ccc(-c4ccc(F)cc4)cc3)[C@@H]2C1 | active: 24.6% |
| CN(C)CC(=O)N[C@@H]1CC[C@H](CCn2cc(C3CCCC3)nn2)O[C@H]1CO | active: 77.7% |
| C[C@H](CO)N1C[C@H](C)[C@H](CN(C)S(C)(=O)=O)OCCCC[C@H](C)Oc2ccc(NC(=O)c3ccncc3)cc2C1=O | inactive: -1.35% |
| O=C(Nc1cccc(Cl)c1)N1C[C@H]2[C@@H](c3ccccc31)[C@H](CO)N2C(=O)c1cccnc1 | inconclusive: 55.4% |
| O=C(Nc1cccc(S(=O)(=O)N2CCOCC2)c1)c1cc(S(=O)(=O)N2CCOCC2)c(Cl)cc1Cl | inconclusive: 54.9% |
| Cc1ccsc1C(=O)OCC(=O)Nc1cccc(S(=O)(=O)N2CCOCC2)c1 | inconclusive: 22% |
| CCC(=O)N1CCCCN2[C@H](C1)[C@H](c1ccc(C#Cc3cccnc3)cc1)[C@@H]2CO | active: 28% |
| Cc1cc(C(=O)OCC(=O)N2C(C)CCCC2C)c2ccccc2n1 (stereo not drawn) | inconclusive: 42.8% |
| COC(=O)C[C@@H]1CC[C@@H]2[C@H](COC[C@@H](O)CN2C(=O)Nc2cccc(F)c2)O1 | inactive: 10.9% |
| CC(C)NC(=O)Nc1ccc2c(c1)C(=O)N([C@@H](C)CO)C[C@@H](C)[C@H](CN(C)C(=O)Nc1ccc(C(F)(F)F)cc1)O2 | inactive: 6.97% |
| C=CCOc1c(Br)cc(/C=N/NC(N)=O)cc1OC | inconclusive: 39.2% |
| CC(C)NC(=O)N1C[C@H]2[C@@H](c3ccccc31)[C@H](CO)N2C(=O)Nc1cccc(F)c1 | inconclusive: 32.3% |
| Cc1noc(C)c1NC(=O)N(C)C[C@@H]1Oc2ccc(NC(=O)Nc3ccc4c(c3)OCO4)cc2C(=O)N([C@@H](C)CO)C[C@@H]1C | inconclusive: 29.4% |

Ordered by molar mass (falling): 3 of the compounds above

| SMILES | CPE inhibition |
| --- | --- |
| NS(=O)(=O)c1ccc(CNC(=O)c2cc(-c3cccnc3)nc3ccc(Cl)cc23)cc1 | inactive: -3.2% |
| CC(C)NC(=O)N1C[C@H]2[C@@H](c3ccccc31)[C@H](CO)N2C(=O)Nc1cccc(F)c1 | inconclusive: 32.3% |
| CN(C)CC(=O)N[C@@H]1CC[C@H](CCn2cc(C3CCCC3)nn2)O[C@H]1CO | active: 77.7% |

Next part

| SMILES | CPE inhibition |
| --- | --- |
| Cc1ccc(NC(=O)CN2C(=O)S/C(=C/c3ccc(-c4cccc(C(=O)O)c4)o3)C2=O)cc1 | inactive: 6.34% |
| CC(=O)N1[C@H](CO)[C@H](c2ccc(-c3cccc(F)c3)cc2)[C@@H]1CNC(=O)C1CC1 | inconclusive: 50% |
| CCN1CCN(c2nc(-c3cccs3)nc3ccccc23)CC1 | inconclusive: 26.3% |
| CCN1CCN(CCCNC(=O)CCc2nc(-c3ccc(OC)cc3)no2)CC1 | inconclusive: 40.3% |
| O=C(C[C@H]1C[C@H]2c3cc(NC(=O)C4CCOCC4)ccc3O[C@H]2[C@@H](CO)O1)NCc1cc(F)ccc1F | inconclusive: 73.6% |
| COc1ccc(C2=NN(C(C)=O)C(c3cccs3)C2)cc1OC (stereo not drawn) | inactive: 1.83% |
| COc1ccccc1OCC(=O)NNC(=O)CCCC(=O)NNC(=O)COc1ccccc1OC | inconclusive: 23.6% |
| O=C(C1CCN(S(=O)(=O)c2cccs2)CC1)N(c1ccccn1)C1CCCCC1 | inconclusive: 20.2% |
| Cc1cccc(NC(=O)c2nc[nH]c2C(=O)N2CCN(c3ccccc3)CC2)c1 | inconclusive: 20.5% |
| CCN(CC)CCCNc1nc2ccccc2c2nc(-c3ccncc3)nn12 | inactive: -7.2% |
| O=C(NC(=O)c1ccccc1Cl)C(=O)Nc1ccc(Cl)cc1 | inconclusive: 29.9% |
| CCc1c(C2(O)CCCCC2)[nH]c2c(C(=O)OC)cc(Cl)cc12 | active: 30.1% |
| Cc1ccc(-c2nn(CCC(=O)NN3CCOCC3)c(=O)c3ccccc23)cc1 | inconclusive: 24% |
| CCCC1=Nc2cc(C(=O)N3CCC(C(=O)OCC)CC3)ccc2Sc2ccccc21 | inconclusive: 40.5% |
| COc1ccc(S(=O)(=O)N2CCOCC2)cc1C(=O)Nc1ccc(N2CCCCCC2)cc1 | inactive: 13.9% |
| CCCNC(=O)Nc1ccc2c(c1)C(=O)N(C)[C@H]1CC[C@H](CC(=O)NCCCN(C)C)O[C@H]1CO2 | inactive: -5.39% |
| O=C(C[C@@H]1CC[C@H]2[C@@H](COC[C@@H](O)CN2S(=O)(=O)c2ccccc2)O1)NCc1ccc(-c2ccccc2)cc1 | inactive: 2.49% |
| Cc1cc(C)cc(N(CC(=O)NC(C)C)C(=O)CCC(=O)Nc2ccccn2)c1 | inactive: 0.143% |
| Cn1c(=O)c2c(nc(C3CC4C5CCC(C5)C4C3)n2C)n(C)c1=O (stereo not drawn) | inconclusive: 23.9% |
| CC(C)C[C@@H](CN=[N+]=[N-])N1CCN(CC(C)C)CCC1=O | active: 87% |
| C[C@@H](NC(=O)C[C@@H]1CC[C@H]2[C@@H](COC[C@H](O)CN2C(=O)Nc2ccccc2)O1)c1ccccc1 | active: 113% |
| O=C(Cc1ccccc1[N+](=O)[O-])NNC(=O)c1ccncc1 | inconclusive: 46.1% |
| CCOC(=O)c1ccc(-c2ccc(N3C(c4cccc(OC)c4)=Cc4ccc(F)cc4C3CC(C)=O)cc2)cc1F (stereo not drawn) | inconclusive: 37.1% |
